These are yes or no findings as the source states them, for the method shown. In cells and extracts the contact can be indirect. Here binding means that the protein was enriched with, or labelled near, the bait; the list need not be complete. Sequences can lack the tags named with a protein.
Tests used:
[1] = target: Astrin (endogenous, HeLa cells) (human (endogenous in HeLa)) (UniProt Q96R06); assay: affinity purification with mass spectrometry; pooled mass spectrometry data from Astrin and SKAP IPs (data of Kern et al., 2016, reanalysed here)
[2] = target: SKAP (endogenous, HeLa cells) (human (endogenous in HeLa)) (UniProt Q9Y448); assay: as above

Chains of the proteins cited; added tags and fusions are not shown. Lines headed by an entry give the natural chain unless they say otherwise; changes in a name come on top.
UniProt Q96R06: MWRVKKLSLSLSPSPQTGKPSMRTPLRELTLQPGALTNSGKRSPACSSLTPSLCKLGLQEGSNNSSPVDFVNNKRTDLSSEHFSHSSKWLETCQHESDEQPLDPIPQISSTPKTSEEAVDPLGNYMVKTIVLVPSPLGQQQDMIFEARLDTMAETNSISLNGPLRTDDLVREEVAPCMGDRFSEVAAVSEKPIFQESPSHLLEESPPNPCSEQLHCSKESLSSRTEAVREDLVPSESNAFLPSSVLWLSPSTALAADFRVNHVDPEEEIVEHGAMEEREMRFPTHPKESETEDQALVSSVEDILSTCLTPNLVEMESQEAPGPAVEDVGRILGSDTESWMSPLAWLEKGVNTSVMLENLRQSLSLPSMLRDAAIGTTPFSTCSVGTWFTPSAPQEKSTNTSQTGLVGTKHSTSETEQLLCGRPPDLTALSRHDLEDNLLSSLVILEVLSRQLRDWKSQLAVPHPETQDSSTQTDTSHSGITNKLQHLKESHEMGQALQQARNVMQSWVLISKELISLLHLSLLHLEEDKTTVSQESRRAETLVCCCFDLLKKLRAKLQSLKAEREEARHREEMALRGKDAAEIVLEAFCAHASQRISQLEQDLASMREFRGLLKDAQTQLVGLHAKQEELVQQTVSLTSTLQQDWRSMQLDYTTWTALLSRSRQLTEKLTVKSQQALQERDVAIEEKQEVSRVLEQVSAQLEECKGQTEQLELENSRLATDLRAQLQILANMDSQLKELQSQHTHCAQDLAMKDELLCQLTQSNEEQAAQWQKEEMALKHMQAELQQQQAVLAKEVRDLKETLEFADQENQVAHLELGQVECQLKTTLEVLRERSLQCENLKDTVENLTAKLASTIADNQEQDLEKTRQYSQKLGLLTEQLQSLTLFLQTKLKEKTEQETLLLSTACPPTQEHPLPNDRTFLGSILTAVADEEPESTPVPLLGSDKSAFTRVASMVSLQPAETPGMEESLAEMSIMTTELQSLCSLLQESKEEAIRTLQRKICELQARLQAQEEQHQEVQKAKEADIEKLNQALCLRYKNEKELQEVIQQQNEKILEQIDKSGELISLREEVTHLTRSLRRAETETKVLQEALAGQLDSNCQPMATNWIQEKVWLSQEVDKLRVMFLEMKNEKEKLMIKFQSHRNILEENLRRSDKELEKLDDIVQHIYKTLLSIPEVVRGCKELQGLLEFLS
UniProt Q9Y448: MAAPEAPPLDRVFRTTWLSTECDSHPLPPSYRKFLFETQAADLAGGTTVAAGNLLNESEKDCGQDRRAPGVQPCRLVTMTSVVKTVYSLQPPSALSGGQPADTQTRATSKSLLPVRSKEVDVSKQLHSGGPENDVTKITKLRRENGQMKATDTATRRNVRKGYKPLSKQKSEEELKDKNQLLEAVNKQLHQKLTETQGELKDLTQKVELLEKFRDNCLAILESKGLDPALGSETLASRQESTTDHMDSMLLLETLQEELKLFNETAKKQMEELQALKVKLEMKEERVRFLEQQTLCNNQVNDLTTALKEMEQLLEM

B1: MYCBP (endogenous, human tissue culture cells) (protein, UniProt Q99417 1-103)
chain: MAHYKAADSKREQFRRYLEKSGVLDTLTKVLVALYEEPEKPNSALDFLKHHLGAATPENPEIELLRLELAEMKEKYEAIVEENKKLKAKLAQYEPPQEEKRAE
binding [1]: binds | binding [2]: binds

— PMC5602300
